Data published in paper doi:10.1101/2022.07.07.499147.

Molecular target: HA-tagged ribosomal protein RpS5b (Drosophila) (UniProt Q9VFE4)
Assay: co-IP

binding: binds
Substance: RpL26 (from UniProt Q9VVU2)

Results are given in words; binding and its absence hold for the method and conditions named. Binding seen in cells or lysates may run through a third protein. Binding calls can cover weak binding; strength is not graded here.
